## Primary screen of a compound library

Measurements from “University of Dundee, Small-Polar-MMV Screening Library” (2021), ChEMBL document CHEMBL3988442.

Results are given as percent effect. How 0% and 100% were set is not recorded. Most values in the screen are low, and negative values occur. Compounds were drawn at random from those tested, without regard to their results. A dash means the value is not listed here; it may have been measured.

Mtb growth Cornell: 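Whole-cell assay for inhibitors of Mycobacterium tuberculosis growth, labelled Cornell in the record; the read-out is not stated. The concentration is filed as 10 mM, unlikely as a test dose, so the dose is not known. The record gives no direction; compounds strong in two other growth screens of this library score well above the rest, so higher reads as stronger inhibition. About 53,000 compounds were tested under these conditions; 1.7% (about 900) showed 50% or more at least once.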
Mtb heat-shock: 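Assay on Mycobacterium tuberculosis, filed only as a heat shock assay from Cornell; the read-out is not stated. The concentration is filed as 10 mM, unlikely as a test dose, so the dose is not known. Higher reads as stronger inhibition (inferred: compounds with an IC50 in retests scored well above the rest). About 69,000 compounds were tested under these conditions; 1.4% (about 930) showed 50% or more at least once.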

structure	Mtb growth Cornell	Mtb heat-shock
Cc1[nH]ccc1C(=O)N1CCOCC12CCCC2	102.6	2.446
Cc1noc(C)c1S(=O)(=O)N(C)Cc1nn(C)c(Cl)c1Cl	-	-39.21
Cc1nn(C2CCS(=O)(=O)C2)c(O)c1Cc1cccc(Cl)c1 (stereo unspecified)	-31.63	-7.17
[H][C@@]12C[C@@H](OCc3ccccc3)C[C@]1([H])CN(CC(=O)N1CCOCC1)C2	6.88	6.923
CCOc1ccc(CN2CC[C@@](C)(O)[C@@H](Cc3ccccc3)C2)cn1	5.823	-1.788
Cn1ncc(NC(=O)Cn2cc(-c3ccc(F)cn3)cn2)n1	14.56	-3.206
CC(C)c1nc2c(n1C)CCN(Cc1nc(-c3cccnc3)no1)C2	-	-11.39
Cc1csc2nc3n(c(=O)c12)CCN(Cc1ccccn1)CC3.Cl	-4.54	1.107
Cc1noc2ncc(C(=O)NCC3CCCOC3)cc12 (stereo unspecified)	-	-1.066
COc1cc(N2CCC(c3nccn3Cc3cccnc3)CC2)ncn1	-46	9.417
Cc1csc(C(C)(C)NCc2ncc(-c3ccc(F)cc3)o2)n1	25.65	0.3687
CCc1ccc(NC(=O)C2OC(c3cccs3)=NN2C(C)=O)cc1 (stereo unspecified)	-	-14.19
COC(=O)C(CNC(=O)Nc1cn[nH]c1)Cc1cccc(C)c1 (stereo unspecified)	8.389	0.813
CCc1nc2c(NCC3COc4c(cccc4OC)C3)ncnc2o1 (stereo unspecified)	-	11.61
COc1ccc2[nH]cc(C(=O)CNc3nccs3)c2c1.I	25.35	0.8623
O=c1oc(-c2cccs2)nn1CC(O)c1ccccc1F (stereo unspecified)	-5.78	-9.037
CNC(=O)C(CCSC)NC(=O)c1ccc2ccccc2n1 (stereo unspecified)	-	13.18
[H][C@]12CNC[C@@]1(C(=O)N(C)Cc1cnccn1)CN(Cc1ccccc1)C2	18.52	2.161
CS(=O)(=O)CCC(=O)NC(c1ccc(F)cc1)C(F)(F)F (stereo unspecified)	5.763	-12.19
COCCN(C)C(=O)c1nc2c(s1)CCCN2S(C)(=O)=O	5.071	-8.468
CCc1nc(N)sc1C(=O)N1CCCC(CCc2ccccc2C)C1 (stereo unspecified)	26.86	2.94
N#Cc1c(F)cccc1N1CCCC(C(=O)Nc2nccs2)C1 (stereo unspecified)	-5.704	20

The last 2 entries again:

| structure | Mtb growth Cornell | Mtb heat-shock |
|---|---|---|
| `CCc1nc(N)sc1C(=O)N1CCCC(CCc2ccccc2C)C1` (stereo unspecified) | 26.86 | 2.94 |
| `N#Cc1c(F)cccc1N1CCCC(C(=O)Nc2nccs2)C1` (stereo unspecified) | -5.704 | 20 |